Structures can show the parent of a compound that is named as a salt. The list shows a part of the results. Single values are uncertain here, since repeats match poorly.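 Test system: Schistosoma mansoni schistosomula, roughly 40 per well, imaged in bright field over time and compared with wells given 0.1% DMSO. Distance read-out: the paper calls a drug a hit when its Mahalanobis distance is at least 2.47, three standard deviations above the DMSO control mean. Degeneracy is the share of worms classified opaque.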 Numbered stars: 1 amine (or outer) side, 2 acyl side, 3 side chain; on linkers, the order of the positions; unused ones are H or OH. Bridge positions count the residues as written; N and C are the ends. Square brackets hold non-standard residues; d marks the D form. Peptide text beside a SMILES is read from it. I, II: the chains in the order shown. Actinocin(9to1) = Cc1c2oc3c(C)ccc(C(=O)[*:1])c3nc-2c(C(=O)[*:2])c(N)c1=O; NMeV = CN[C@H](C(=O)O)C(C)C; Sar = CNCC(=O)O

This assay concerns Schistosoma mansoni schistosomula. Briefly: Mahalanobis distance of static-rate-frequency phenotype descriptors from DMSO controls (dimensionless); higher = stronger phenotypic change versus DMSO. The conditions noted are these: 10 µM; 72 h.
Regarding `NC(=O)c1ccc[n+]([C@@H]2O[C@H](COP(=O)([O-])OP(=O)(O)OC[C@H]3O[C@@H](n4cnc5c(N)ncnc54)[C@H](O)[C@@H]3O)[C@@H](O)[C@H]2O)c1` [Nadide], the Mahalanobis distance was inactive: 2.25.

As to `NCC(=O)CCC(=O)O` [Aminolevulinic Acid Hydrochloride], the Mahalanobis distance is inactive: 2.38. Regarding `COc1ccc([C@@H]2Sc3ccccc3N(CCN(C)C)C(=O)[C@@H]2OC(C)=O)cc1` [Diltiazem], the Mahalanobis distance is active: 5.69. As for `COc1ccc([C@@H]2Sc3ccccc3N(CCN(C)C)C(=O)[C@@H]2OC(C)=O)cc1` [Diltiazem Hydrochloride], the Mahalanobis distance is active: 4.51. As to `Cc1cn([C@H]2C[C@H](N=[N+]=[N-])[C@@H](CO)O2)c(=O)[nH]c1=O` [Zidovudine [azt]], the Mahalanobis distance is inactive: 1.66.

Consider `NS(=O)(=O)Cc1noc2ccccc12` [Zonisamide], for which the Mahalanobis distance is inactive: 2.15. In the case of `CN(C)CCN(Cc1ccc(Cl)cc1)c1ccccn1` [Chloropyramine Hydrochloride] it was active: 2.89; in that of `CCCCCCCCCCOc1cc2c(O)c(C(=O)OCC)cnc2cc1OCC` [Decoquinate], active: 2.54. Turning to `CC(=O)OCC(=O)[C@@]1(O)[C@H](OC(C)=O)C[C@H]2[C@@H]3CCC4=CC(=O)C=C[C@]4(C)[C@@]3(F)[C@@H](O)C[C@@]21C` [Triamcinolone Diacetate], the Mahalanobis distance is active: 2.57.

Consider `CC(C)Cn1cnc2c(N)nc3ccccc3c21` [Imiquimod], for which the Mahalanobis distance is inactive: 2.24. Regarding `CCNC(=O)[C@@H]1CCCN1C(=O)[C@H](CCCNC(=N)N)NC(=O)[C@H](CC(C)C)NC(=O)[C@@H](CC(C)C)NC(=O)[C@H](Cc1ccc(O)cc1)NC(=O)[C@H](CO)NC(=O)[C@H](Cc1c[nH]c2ccccc12)NC(=O)[C@H](Cc1c[nH]cn1)NC(=O)[C@@H]1CCC(=O)N1` [Leuprolide], the Mahalanobis distance was inactive: 1.58. Regarding `COc1cc(NS(=O)(=O)c2ccc(N)cc2)nc(OC)n1` [Sulfadimethoxine], the Mahalanobis distance is inactive: 1.92. On to `CC[N+](CC)(CC(=O)Nc1c(C)cccc1C)Cc1ccccc1` [Denatonium Benzoate], for which the Mahalanobis distance is inactive: 1.26.

Take `CC1(C)O[C@@H]2[C@@H](CO[C@@]3(COS(N)(=O)=O)OC(C)(C)O[C@@H]23)O1` [Topiramate]: the Mahalanobis distance is active: 2.52. In the case of `O=C(O)CCCC[C@@H]1CCSS1` [Thioctic Acid], the Mahalanobis distance is inactive: 1.93. Turning to `CCCCCCCCNC(C)C(O)c1ccc(SC(C)C)cc1` (stereo not drawn) [suloctidil], the Mahalanobis distance was active: 2.98.

`C[C@H]1O[C@@H](O[C@H]2[C@@H](O)C[C@H](O[C@H]3[C@@H](O)C[C@H](O[C@H]4CC[C@@]5(C)[C@H](CC[C@@H]6[C@@H]5CC[C@]5(C)[C@@H](C7=CC(=O)OC7)CC[C@]65O)C4)O[C@@H]3C)O[C@@H]2C)C[C@H](O)[C@@H]1O` [digitoxin]: the Mahalanobis distance is inactive: 2.39.

With `CN(Cc1ccc(C(C)(C)C)cc1)Cc1cccc2ccccc12` [Butenafine], the Mahalanobis distance was inactive: 2.07. In the case of `CC(C)NC(=N)NC(=N)Nc1ccc(Cl)cc1` [Proguanil; Chlorguanide Hydrochloride] it was inactive: 2.21. Regarding `O=c1[nH]c(=O)n([C@H]2C[C@H](O)[C@@H](CO)O2)cc1C(F)(F)F` [Trifluridine], the Mahalanobis distance is inactive: 1.78.

In the case of `CCCC(=O)O[C@]1(C(=O)CO)CC[C@H]2[C@@H]3CCC4=CC(=O)CC[C@]4(C)[C@H]3[C@@H](O)C[C@@]21C` [Hydrocortisone Butyrate], the Mahalanobis distance is inactive: 2.28. In the case of `CC1(C)S[C@@H]2[C@H](NC(=O)COc3ccccc3)C(=O)N2[C@H]1C(=O)O` [Penicillin V Potassium], the Mahalanobis distance was inactive: 2.24.

`Cc1ccc(C(C)C)c(O)c1` [Thymol]: the Mahalanobis distance is inactive: 1.92. In the case of `Clc1cc(Cl)c(OCC#CI)cc1Cl` [Haloprogin], the Mahalanobis distance was inactive: 2.05.

In the case of `Nc1nnc(-c2cccc(Cl)c2Cl)c(N)n1` [Lamotrigine], the Mahalanobis distance is inactive: 2.14. In the case of `CC(=O)O[C@]1(C(C)=O)CC[C@H]2[C@@H]3C=C(C)C4=CC(=O)CC[C@]4(C)[C@H]3CC[C@@]21C` [Megestrol Acetate], the Mahalanobis distance was inactive: 2.1. For the compound `Cc1c(C)c2c(c(C)c1O)CCC(C)(CCCC(C)CCCC(C)CCCC(C)C)O2` (stereo not drawn) [Alpha-tochopherol], the Mahalanobis distance was inactive: 2.36. In the case of `Cc1c2oc3c(C)ccc(C(=O)N[C@@H]4C(=O)N[C@H](C(C)C)C(=O)N5CCC[C@H]5C(=O)N(C)CC(=O)N(C)[C@@H](C(C)C)C(=O)O[C@@H]4C)c3nc-2c(C(=O)N[C@@H]2C(=O)N[C@H](C(C)C)C(=O)N3CCC[C@H]3C(=O)N(C)CC(=O)N(C)[C@@H](C(C)C)C(=O)O[C@@H]2C)c(N)c1=O` [Dactinomycin] (I: T[dV]P[Sar][NMeV] / II: T[dV]P[Sar][NMeV]; ester I:1-I:C, II:1-II:C; linker I:N-II:N via Actinocin(9to1)) it was inactive: 2.06; in that of `Cc1nccn1CC1CCc2c(c3ccccc3n2C)C1=O` (stereo not drawn) [Ondansetron], active: 3.62. Regarding `NC(=O)c1cc[n+](CC2=C(C(=O)[O-])N3C(=O)[C@@H](NC(=O)Cc4cccs4)[C@H]3SC2)cc1` [Cefalonium], the Mahalanobis distance is inactive: 1.86.

Take `O=C1C(O)=C(O)C(=O)C(O)=C1O` [Tetroquinone]: the Mahalanobis distance was inactive: 1.36.

Turning to `O=C(c1cccnc1)N1CCOCC1` [Nicopholine], the Mahalanobis distance is inactive: 1.61. For the compound `COc1ccc2cc3[n+](cc2c1OC)CCc1cc2c(cc1-3)OCO2` [Berberine Chloride], the Mahalanobis distance is inactive: 2.36.

On to `CC1=C(C(=O)O)N2C(=O)[C@@H](NC(=O)[C@H](N)c3ccccc3)[C@H]2SC1` [Cephalexin], for which the Mahalanobis distance was inactive: 2.03. The figure for `CC[C@H](C)C(=O)O[C@H]1C[C@H](O)C=C2C=C[C@H](C)[C@H](CC[C@@H](O)C[C@@H](O)CC(=O)O)[C@H]21` [Pravastatin] is inactive: 2.2. The figure for `CC[C@H](C)C(=O)O[C@H]1C[C@H](O)C=C2C=C[C@H](C)[C@H](CC[C@@H](O)C[C@@H](O)CC(=O)O)[C@H]21` [Pravastatin Sodium] is inactive: 1.95; for `O=C(O)Cc1cc(I)c(Oc2ccc(O)c(I)c2)c(I)c1` [Tiratricol] it is inactive: 2.36; for `O=C(CCCCC(=O)Nc1c(I)cc(I)c(C(=O)O)c1I)Nc1c(I)cc(I)c(C(=O)O)c1I` [iodipamide] it is active: 2.63.

For the compound `Cc1ccc(C(=O)C(C)CN2CCCCC2)cc1` (stereo not drawn) [tolperisone], the Mahalanobis distance is inactive: 1.91. For `CCCCC1C(=O)N(c2ccccc2)N(c2ccccc2)C1=O` [Phenylbutazone], the Mahalanobis distance is inactive: 1.42. On to `CC(=O)/N=c1/sc(S(N)(=O)=O)nn1C` [Methazolamide], for which the Mahalanobis distance was inactive: 1.76. Take `CC1=CC(=O)c2ccccc2C1=O` [menadione]: the Mahalanobis distance was inactive: 2.46. In the case of `COCCCOc1cc(C[C@@H](C[C@H](N)[C@@H](O)C[C@H](C(=O)NCC(C)(C)C(N)=O)C(C)C)C(C)C)ccc1OC` [Aliskiren Hemifumarate] it was inactive: 1.77; in that of `CCCCOC(=O)c1ccc(O)cc1` [Butylparaben], inactive: 1.73; in that of `CN1[C@@H]2CC[C@H]1C[C@@H](OC(c1ccccc1)c1ccccc1)C2` [Benztropine], active: 3.29. On to `CC#CCC(C)[C@H](O)/C=C/[C@@H]1[C@H]2C/C(=C/CCCC(=O)O)C[C@H]2C[C@H]1O` (stereo partly drawn) [Iloprost], for which the Mahalanobis distance is inactive: 1.69.

Take `N=C(N)c1ccc(N=NNc2ccc(C(=N)N)cc2)cc1` [Diminazene Aceturate]: the Mahalanobis distance was active: 5.17. In the case of `CC(=O)OCC(=O)[C@@]12OC3(CCCC3)O[C@@H]1C[C@H]1[C@@H]3CCC4=CC(=O)C=C[C@]4(C)[C@@]3(F)[C@@H](O)C[C@@]12C` [Amcinonide] it was inactive: 1.49; in that of `C=COCC(F)(F)F` [Fluroxene], inactive: 1.31. With `CC(C)CCC[C@@H](C)[C@H]1CC[C@H]2[C@@H]3CC=C4C[C@@H](O)CC[C@]4(C)[C@H]3CC[C@]12C` [Cholesterol], the Mahalanobis distance is inactive: 1.92. Take `Cc1c(O)cccc1C(=O)N[C@@H](CSc1ccccc1)[C@H](O)CN1C[C@H]2CCCC[C@H]2C[C@H]1C(=O)NC(C)(C)C` [Nelfinavir]: the Mahalanobis distance is inactive: 1.97. In the case of `COc1ccc2nc3cc(Cl)ccc3c(Nc3cc(CN4CCCC4)c(O)c(CN4CCCC4)c3)c2n1` [Pyronaridine Tetraphosphate], the Mahalanobis distance is active: 3.13. Turning to `Cc1ccc(O)c([C@H](CCN(C(C)C)C(C)C)c2ccccc2)c1` [Tolterodine], the Mahalanobis distance was active: 2.55. The figure for `NC[C@H]1CC[C@H](C(=O)O)CC1` [Tranexamic Acid] is inactive: 1.82; for `Oc1c(Cl)cc(Cl)cc1Sc1cc(Cl)cc(Cl)c1O` [Bithionol] it is inactive: 2.32; for `CCCCOc1ccc(CC(=O)NO)cc1` [Bufexamac] it is inactive: 1.69. As to `O=S(=O)(O)CCSSCCS(=O)(=O)O` [Dimesna], the Mahalanobis distance was inactive: 2.15. Regarding `Cc1cc(CC(C)CC(C)(C)C)n(O)c(=O)c1` (stereo not drawn) [Piroctone Olamine], the Mahalanobis distance was inactive: 2.21.

Turning to `Clc1ccccc1C(c1ccccc1)(c1ccccc1)n1ccnc1` [Clotrimazole], the Mahalanobis distance was inactive: 2.25. For `CO/N=C1\CN(c2nc3c(cc2F)c(=O)c(C(=O)O)cn3C2CC2)CC1CN` (stereo not drawn) [Gemifloxacin Mesylate], the Mahalanobis distance is inactive: 1.75. Consider `CC(=O)[C@H]1CC[C@H]2[C@@H]3CC=C4C[C@@H](OC(=O)CCC(=O)O)CC[C@]4(C)[C@H]3CC[C@]12C` [Pregnenolone Succinate], for which the Mahalanobis distance is active: 2.72. Turning to `CCN(CCCc1ccccc1)CCCc1ccccc1` [Alverine Citrate], the Mahalanobis distance is inactive: 1.8.

Consider `CC[C@]1(O)C[C@@H]2CN(CCc3c([nH]c4ccccc34)[C@@](C(=O)OC)(c3cc4c(cc3OC)N(C)[C@H]3[C@@](O)(C(=O)OC)[C@H](OC(C)=O)[C@]5(CC)C=CCN6CC[C@]43[C@@H]65)C2)C1` [Vinblastine Sulfate], for which the Mahalanobis distance is active: 2.92.

The values are drawn from the supplement of paper PMC7752906.
